PubChem BioAssay AID463205 (Broad Institute, 2010)
About 20 (0.8%) of roughly 2,400 compounds were called active.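 How the source made its calls: active means AC50 no more than ten times the highest tested concentration, or full inhibition at every dose giving a flat fit (cut at about 30 µM in these data); inconclusive means flat fit with activity between 30% and 70%, or poor-quality invalid fit; inactive means AC50 more than ten times the top tested dose.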 The list shows a part of the results.

assay: inhibitors of ADP-Glo detection reagents, dose response, artefact control for GSK-3a inhibitor project, biochemical, luminescence, cell-free, homogeneous (AID 463205); settings: 5 uM ADP;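 further: kinase-free counter-screen against the ADP-Glo detection reagents only; potency is for inhibitors that reduce the luminescence signal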

AC50, inactive:
COc1ccc(-c2nc(NC(=O)C3CC(=O)N(c4ccc5c(c4)OCCO5)C3)sc2C)cc1 (stereo not given) > 30 µM
O=C(Nc1n[nH]c(=S)s1)c1ccc2ccccc2c1 > 30 µM
CC(=O)c1cc(-c2ccc(F)cc2)n(CCC(=O)Nc2cccc(C)n2)c1C > 30 µM
O=C(CSc1ccc2nnc(-c3ccc(F)cc3)n2n1)N1CCCc2ccccc21 > 30 µM
Cc1ccnc(SCC(=O)Nc2sc3c(c2C#N)CCCC3)n1 > 30 µM
COc1ccc(CC(=O)Nc2nccs2)cc1S(=O)(=O)N1CCOCC1 > 30 µM
N#C/C(=N\Nc1ccccc1Cl)C(=O)c1ccccc1 > 30 µM
COc1cccc(C2C3(C#N)C(N)=NC(OC)(OC)C23C#N)c1 (stereo not given) > 30 µM
CC(=C/c1ccco1)/C=N/NC(=O)c1nnn(-c2nonc2N)c1CN(C)C > 30 µM
O=C(CSc1ncccc1-c1nc2ccccc2[nH]1)NCc1ccco1 > 30 µM
CCOC(=O)c1ccc(NC(=O)CSCc2ccco2)cc1 > 30 µM
CC(/C=N/NC(=O)c1nnn(-c2nonc2N)c1C(C)C)=C\c1ccco1 > 30 µM
CN(C)c1ccc(/C=N/NC(=O)c2ccc(Cl)cc2)cc1 > 30 µM
CN1CCN(Cc2c(C(=O)N/N=C/c3cccc(Br)c3)nnn2-c2nonc2N)CC1 > 30 µM
CC(C)CNc1cc(N2CCCC2)ccc1[N+](=O)[O-] > 30 µM
O=C(Nc1nc2c(s1)CCCC2)c1ccc(Br)s1 > 30 µM
O=C(CN1CCOCC1)Nc1cccc(Br)c1 > 30 µM
CC(=O)O[C@@H]1[C@@H](O)[C@@H](O)[C@H](Oc2c(-c3ccc(O)cc3)oc3c(CC=C(C)C)c(O)cc(O)c3c2=O)O[C@H]1C > 30 µM
O=C(NCC1CCN(Cc2ccccc2Cl)CC1)Nc1cccc(Cl)c1 > 30 µM
Cc1ccc(S(=O)(=O)N2CCN(C(=O)n3ccnc3)CC2)cc1 > 30 µM
CC(C)c1c(C(=O)N/N=C/c2ccsc2)nnn1-c1nonc1N > 30 µM
CCN1C(=O)/C(=C/c2cccs2)N(C)C1=S > 30 µM
Cc1c(CN(C)C)c2c(n1Cc1ccccc1)C(=O)c1ccccc1-2 > 30 µM
COc1ccc(/C=C(\C#N)C(=O)N=CN(C)C)cc1 > 30 µM
COc1ccc(SCCN2CC[C@@H](C(C)(C)C)CCC2=O)cc1 > 30 µM
CCOCC(=O)Nc1nc2ccc(OCC)cc2s1 > 30 µM
O=c1cc(-c2ccc(O)c(O)c2)oc2c1ccc1ccccc12 > 30 µM
CCOc1cc(/C=N/Nc2ncc(C)c(=O)[nH]2)ccc1O > 30 µM
COc1cccc2cc(C(=O)NCc3ccco3)c(=O)oc12 > 30 µM
O=C(Nc1ccccc1C(=O)N1CCOCC1)c1cccnc1 > 30 µM
CC1(C)CC(=O)C2=C(C1)Nc1ccccc1[S@]2=O > 30 µM
CCOc1cc(/C=N/NC(=O)N/N=C/c2ccc(O)c(OCC)c2)ccc1O > 30 µM
CCCCC(=O)Nc1sc2c(c1C(N)=O)CCC2 > 30 µM
CCCCCCCNc1nc(Cl)nc(NCCO)n1 > 30 µM
Cc1ccc(C(=O)c2cc(C)sc2NC(=O)CN2CCN(C(=O)c3ccco3)CC2)cc1 > 30 µM
C/C(=N\NC(=O)c1nnn(-c2nonc2N)c1-c1cccs1)c1cccc(O)c1 > 30 µM
O=C1NC(=O)/C(=C\c2ccc(OCc3cccc(C(=O)O)c3)c(Cl)c2)N1 > 30 µM
COC(=O)c1c(NC(=O)CN2C(=O)NC3(CCC(C(C)(C)C)CC3)C2=O)sc2c1CCCCC2 (stereo not given) > 30 µM
COc1ccc(NC2CC(=O)NC2=O)cc1 (stereo not given) > 30 µM
COc1ccc(-n2c(O)c(C=NC3CC3)c(=O)[nH]c2=O)cc1 > 30 µM
N/C(=N\OC(=O)c1ccc(Br)cc1)c1cccc([N+](=O)[O-])c1 > 30 µM
COc1ccc(CC(=S)N2CCOCC2)cc1OC > 30 µM
O=C(Nc1cccnc1)c1scc2c1OCCO2 > 30 µM
Cn1c(=O)c2c([nH]c(=O)n2C)n(Cc2ccccc2)c1=O > 30 µM
Cc1ccc(N(C)C(=O)C2CCCN2S(=O)(=O)c2cccc3nsnc23)cc1 (stereo not given) > 30 µM
CC(C)NC(=O)NC(=O)CSc1nncn1C > 30 µM
CCNC(=S)NNC(=O)Cc1ccccc1 > 30 µM
COC(=O)c1c(NC(=O)CN2C(=O)NC3(CCCCC3C)C2=O)sc2c1CCC2 (stereo not given) > 30 µM
COc1ccc(OC)c(/C=C2\Oc3cc(OCC(=O)N4CCC[C@H]4C(=O)O)ccc3C2=O)c1 > 30 µM
O=C(O)c1cccc2c1C(=O)c1ccc(Cl)cc1S2(=O)=O > 30 µM
O=C(NCCc1csc(-c2ccccc2)n1)c1ccc(Br)o1 > 30 µM
O=c1ccc(-c2nc3ccccc3n2Cc2ccc(Cl)cc2)c[nH]1 > 30 µM
COc1ccc(-n2c(C)nc(N)c2C(=O)c2ccccc2)cc1 > 30 µM
Cc1ccc(-n2cnc(N)c2C(=O)c2cccc([N+](=O)[O-])c2)cc1 > 30 µM
O=Cc1cn(-c2ccccc2)nc1-c1ccc2c(c1)OCCO2 > 30 µM
CCCn1c2ccccc2c2nc3ccccc3nc21 > 30 µM
O=c1c(O[C@@H]2O[C@H](CO)C(O)C2O)c(-c2ccc(O)c(O)c2)oc2cc(O)cc(O)c12 (stereo not given in full) > 30 µM
CC1CCCC(C)N1C(=O)COC(=O)c1c[nH]c2ccccc12 (stereo not given) > 30 µM
Cc1ccc(Cc2c(C)nc3nc(SCC(=O)NCCCN4CCCCCC4)nn3c2C)cc1 > 30 µM
OCCCNc1ncnc2scc(-c3ccc(Cl)cc3)c12 > 30 µM
CC(C)Cn1nc(NC(=O)C2CCCO2)c2cc3ccccc3nc21 (stereo not given) > 30 µM
Cc1ccc2nc3c(cc2c1)c(NS(=O)(=O)c1ccccc1)nn3CC(C)C > 30 µM
O=C(N/N=C/c1cccnc1)c1cccc(S(=O)(=O)N2CCCC2)c1 > 30 µM
COc1c(-c2ccccc2)oc2c(ccc3occc32)c1=O > 30 µM
NC(=NCCCCCCN=C(N)/N=C(\N)Nc1ccc(Cl)cc1)/N=C(\N)Nc1ccc(Cl)cc1 > 30 µM
C/C(=N\O)C(=O)NCCCn1ccnc1 > 30 µM
O=c1cc(-c2ccncc2)oc2c1ccc1ccccc12 > 30 µM
COC(=O)c1oc2ccc(Cl)cc2c1N > 30 µM
COc1ccc(-c2cn3cccnc3n2)cc1NC(=O)C1CC1 > 30 µM
CCOc1ccc2ncc(S(=O)(=O)c3ccccc3)c(N3CCN(c4ccccc4)CC3)c2c1 > 30 µM
Cc1cccc(C(=O)Nc2cccc(-c3cnc4ccccc4n3)c2)c1 > 30 µM
Fc1ccc(Nc2ccnc(Nc3ccc(F)cc3)n2)cc1 > 30 µM
CC1(C)Cc2c(sc3ncn(N)c(=N)c23)CO1 > 30 µM
CCCc1c(C(=O)N/N=C/c2cccnc2)nnn1-c1nonc1N > 30 µM
O=C(CSCCc1ccccn1)Nc1ccccn1 > 30 µM
Cc1ccc(/C=N/NC(=O)c2nnn(-c3nonc3N)c2CN(C)C2CCCCC2)cc1 > 30 µM
COc1cccc(N(CC(=O)Nc2cccc(C(C)=O)c2)S(C)(=O)=O)c1 > 30 µM
COc1ccccc1N1C(=O)C2C(c3ccccc3F)NN(C(=O)c3ccc(C)cc3)C2C1=O (stereo not given) > 30 µM
O=C(O)c1cn(-c2ccccc2)nc1-c1cccnc1 > 30 µM
CCOc1ccc2nc(NC(=O)CSC3=NCCS3)sc2c1 > 30 µM
CCCC(=O)Nc1cc(-c2cn3cccnc3n2)ccc1OC > 30 µM
COc1cc(/C=N/NC(=O)c2cccnc2)cc(Br)c1O > 30 µM
COC(=O)c1sccc1NC(=O)c1ccccc1 > 30 µM
Cc1nc(N2CCC(C(N)=O)CC2)c2c(-c3cccs3)csc2n1 > 30 µM
COc1ccc2nc(NC(=O)CN3CCN(C)CC3)sc2c1 > 30 µM
CC(C)NC(=O)Nc1ccc(Br)cc1Cl > 30 µM
CCOC(=O)c1nc(NCc2ccccc2C)c2ccccc2n1 > 30 µM
Cc1ccc(NC(=S)Nc2ccc3cn[nH]c3c2)c(C)c1 > 30 µM
Cc1cc(C)cc(NC(=O)CSCc2nc3c(nnn3Cc3ccc(F)cc3)c(=O)[nH]2)c1 > 30 µM
O=C(CSc1cccc2cccnc12)N/N=C/c1ccc(O)cc1 > 30 µM
O=C(CSc1ccccn1)Nc1ccccc1F > 30 µM
CCOc1cccc(-c2c(C(=O)N/N=C(\C)c3ccncc3)nnn2-c2nonc2N)c1 > 30 µM
Cc1sc2ncnc(NCCN3CCOCC3)c2c1C > 30 µM
CCC(CO)Nc1ncc([N+](=O)[O-])cc1C#N (stereo not given) > 30 µM
COc1ccc2nc(NC(=O)CSc3cn[nH]n3)sc2c1 > 30 µM

Of the compounds above, these contain a tert-butyl group.
AC50, inactive:
COc1ccc(SCCN2CC[C@@H](C(C)(C)C)CCC2=O)cc1 > 30 µM
COC(=O)c1c(NC(=O)CN2C(=O)NC3(CCC(C(C)(C)C)CC3)C2=O)sc2c1CCCCC2 (stereo not given) > 30 µM

Retrieved by structure from the entries so far, 2 records:
AC50, inactive:
O=C(CSc1cccc2cccnc12)N/N=C/c1ccc(O)cc1 > 30 µM
Cc1ccc(Cc2c(C)nc3nc(SCC(=O)NCCCN4CCCCCC4)nn3c2C)cc1 > 30 µM
